Laboratory results as given in PubChem BioAssay AID504444 (National Center for Advancing Translational Sciences (NCATS), 2011).
Out of some 360,000 compounds screened, about 7,500 (2.1%) were called active. This list was built around the results that the source calls inconclusive (neither active nor inactive); the mix of calls is not that of the screen. The call rests on the fitted dose curve; in most records, active means well fitted inhibition curve with a large enough effect; inconclusive means small, poorly fitted or top-dose-only effect, or effect the other way; inactive means flat fitted curve, though single readings scatter. Potencies of inconclusive entries are doubtful fits and often do not repeat.

Assay: Nrf2 qHTS screen for inhibitors; further: nearly all actives have a fitted effect of over 60% in size
Details: A549 ARE-Fluc reporter, luciferase luminescence, 18-24 h; series mostly up to 46 µM
Method in brief: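 Quantitative HTS in A549 cells stably bearing an antioxidant response element-firefly luciferase construct. Inhibition of Nrf2-driven transcription was scored by luminescence after 18-24 h of compound exposure at 37 °C.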
Potency means the concentration at half of the fitted maximal effect.

Row | Structure (SMILES) | Potency
1 | CCCN(CC(=O)Nc1ccccc1C)C(=O)c1cccc(S(=O)(=O)N2CCN(c3ccccc3)CC2)c1 | inconclusive: 20.6 µM [falling, partial curve, poor fit]
2 | CCc1cccc(C)c1NC(=O)CN1CCCN(Cc2ccccc2Cl)S1(=O)=O | inactive
3 | CC1CCC(NC(=O)c2cc3c(s2)CCCC3)CC1 (centres undefined) | inconclusive: 10.3 µM [activator, partial curve]
4 | CN(CCCNC(=O)c1cccn2c(=O)c3ccccc3nc12)Cc1ccccc1 | inactive
5 | C=CCn1c(C)cc(C(=O)CN2C(=O)NC3(CCCc4ccccc43)C2=O)c1C (centres undefined) | inactive
6 | O=C(CSCc1cccc(Cl)c1)NCc1ccc2c(c1)OCO2 | inconclusive: 32.6 µM [falling, partial curve, poor fit]
7 | Cc1ccc(C2=Nc3ccccc3N=C(C(Cl)Cl)C2)cc1 | inconclusive: 9.2 µM [activator, partial curve]
8 | CCOc1ccc2nc(NC(=O)CCC(=O)c3cccs3)sc2c1 | inconclusive: 2.91 µM [activator, full curve]
9 | COc1ccccc1CNC(=O)C1(NC(=O)Nc2ccc(C)cc2)CCCCC1 | inconclusive: 20.6 µM [falling, single point]
10 | O=C(NNC(=S)Nc1ccccc1)c1cccnc1 | inconclusive: 2.59 µM [activator, full curve, poor fit]
11 | CCOC(=O)N1CCN(S(=O)(=O)c2ccc(C(=O)NNc3nc4ccc(Cl)cc4s3)cc2)CC1 | active: 5.8 µM
12 | O=C(N/N=C/c1cccnc1)c1ccc(CN2c3cccc4cccc(c34)S2(=O)=O)cc1 | inconclusive: 10.3 µM [falling, partial curve, poor fit]
13 | O=C1NC(=O)/C(=C\c2ccc(O)cc2O)S1 | inactive
14 | Cc1cc(C(=O)Nc2cccc(/C=C/C(=O)O)c2)c(C)o1 | inactive
15 | Cc1ccc(NC(=O)C(=O)NCc2ccco2)cc1 | inconclusive: 1.84 µM [activator, partial curve]
16 | Nc1ccc2c(c1)C(=O)c1cc(N)c(Cl)cc1-2 | inconclusive: 25.9 µM [falling, partial curve, poor fit]
17 | CCCCN1C(=O)/C(=C2/C=CC=CN2C)SC1=S | inconclusive: 9.2 µM [activator, partial curve, poor fit]
18 | Cc1ccc(C)c(CN2C(=O)c3ccccc3S(=O)c3ccc(C(=O)N4CCN(c5cccc(Cl)c5)CC4)cc32)c1 (centres undefined) | inactive
19 | Cn1ncc([N+](=O)[O-])c1C(=O)Nc1ccc(-c2nc3ccccc3[nH]2)cc1 | inactive
20 | CCOc1ccc(CN=C(N)N=C(N)N)cc1Cl | inconclusive: 5.8 µM [falling, partial curve, poor fit]
21 | O=C(/C=C/c1cccs1)c1ccc(N2CCOCC2)cc1 | inconclusive: 29.1 µM [activator, single point]
22 | Cc1ccc(-c2nn3c(C)nnc3s2)cc1NC(=O)c1ccc(Br)o1 | inconclusive: 18.4 µM [falling, partial curve, poor fit]

Reprinted at random: 3 entries already listed
Row | Structure (SMILES) | Potency
10 | O=C(NNC(=S)Nc1ccccc1)c1cccnc1 | inconclusive: 2.59 µM [activator, full curve, poor fit]
12 | O=C(N/N=C/c1cccnc1)c1ccc(CN2c3cccc4cccc(c34)S2(=O)=O)cc1 | inconclusive: 10.3 µM [falling, partial curve, poor fit]
13 | O=C1NC(=O)/C(=C\c2ccc(O)cc2O)S1 | inactive

Additional entries follow.

Row | Structure (SMILES) | Potency
23 | O=C(NCCc1ccccc1)c1noc2c1CCCCC2 | inconclusive: 2.59 µM [activator, full curve]
24 | COc1ccc(OCCCC(=O)N2CCN(S(=O)(=O)c3cccc(F)c3)CC2)cc1 | inconclusive: 20.6 µM [falling, partial curve, poor fit]
25 | CC(C)CC(=O)NC1(C(F)(F)F)C(=O)Nc2c1c(=O)[nH]c(=O)n2-c1ccccc1 (centres undefined) | inactive
26 | c1coc(CSc2ncnc3c2oc2ccccc23)c1 | inconclusive: 10.3 µM [activator, partial curve]
27 | CCc1c(C)c(C#N)c2nc3ccccc3n2c1NCCOC | inconclusive: 29.1 µM [falling, single point]
28 | CC(=O)Cn1cnc2c(cnn2-c2ccc(C)c(C)c2)c1=O | inconclusive: 1.3 µM [activator, full curve, poor fit]
29 | Cc1ccc(C(=O)NCCOc2ccc(Cl)cc2)cc1 | inconclusive: 18.4 µM [activator, single point]
30 | CC1=CC(C)(C)Nc2ccccc21 | inactive
31 | Cc1cc(C(=O)Nc2cc(C)n(Cc3ccc(Cl)cc3)n2)no1 | inconclusive: 0.82 µM [activator, single point]
32 | CCOc1ccc(NC(=O)c2ccco2)c([N+](=O)[O-])c1 | inconclusive: 4.61 µM [activator, partial curve]
33 | COc1ccc2c(c1)-c1c(ssc1=S)C(C)(C)N2C(=O)CSC1=NCCS1 | inconclusive: 29.1 µM [falling, single point]
34 | N#C/C(=C(/O)CCl)c1nc2ccccc2[nH]1 | inconclusive: 16.4 µM [falling, single point]
35 | COc1ccccc1N1C(C)=CC(=C(C#N)c2nc3ccccc3s2)C=C1C | inconclusive: 23.1 µM [falling, partial curve, poor fit]
36 | Cc1ccc(-n2c(=O)c3cccnc3n2CC(=O)Nc2cc(Cl)ccc2C)cc1 | inactive
37 | c1ccc(Nc2nc(-c3cccs3)cs2)nc1 | inconclusive: 1.84 µM [activator, partial curve, poor fit]
38 | O=C(NC(Cc1c[nH]c2ccccc12)C(=O)Nc1ccc(OC(F)(F)F)cc1)c1cccs1 (centres undefined) | inconclusive: 2.31 µM [activator, partial curve]
39 | O=C(Cn1nnc(-c2ccccc2)n1)N/N=C/c1ccc(-c2ccc(Cl)cc2)o1 | inconclusive: 6.51 µM [activator, single point]
40 | COc1ccc(-c2noc(CCCOc3ccc(Cl)cc3Cl)n2)cc1 | inconclusive: 13 µM [falling, single point]
41 | Cc1cccc(CS(=O)(=O)c2ncc(Cl)c(C(=O)Nc3c(C)cccc3C)n2)c1 | active: 14.6 µM
42 | O=Cc1ccccc1-c1cn(CN2C(=O)c3ccccc3C2=O)nn1 | inactive
43 | Cc1ccc(S(=O)(=O)c2cn(Cc3cccc(C)c3)c3cc4c(cc3c2=O)OCO4)cc1 | inconclusive: 29.1 µM [activator, single point]
44 | CC(=O)Nc1ccc(NC(=O)CSc2nnc(NC(=O)C3CC(=O)N(c4ccc(F)cc4)C3)s2)cc1 (centres undefined) | inactive
